In US6939855B2, “Anti-inflammatory compositions and method” (Elan Pharmaceuticals, Inc., priority 1997, dated 2005):
Some of these results come from one statement about several compounds together. At least one structure is not confirmed: it was looked up by name or label, or the drawing left a doubt. Numbered stars: 1 amine (or outer) side, 2 acyl side, 3 side chain; on linkers, the order of the positions; unused ones are H or OH. Square brackets hold non-standard residues; d marks the D form. Side chains are listed from the residue outwards. Peptide text beside a SMILES is read from it. * marks the point of attachment. ξ: configuration not given here. Tos = Cc1ccc(S(=O)(=O)*)cc1; ξY = NC(Cc1ccc(O)cc1)C(=O)O; NMeA = CN[C@@H](C)C(=O)O; CO = O=C([*:1])[*:2]; Sar = CNCC(=O)O

Amino acid sequences for entries named in this document (tags omitted). Residues count along the entry.
UniProt Q13797, 30-1035: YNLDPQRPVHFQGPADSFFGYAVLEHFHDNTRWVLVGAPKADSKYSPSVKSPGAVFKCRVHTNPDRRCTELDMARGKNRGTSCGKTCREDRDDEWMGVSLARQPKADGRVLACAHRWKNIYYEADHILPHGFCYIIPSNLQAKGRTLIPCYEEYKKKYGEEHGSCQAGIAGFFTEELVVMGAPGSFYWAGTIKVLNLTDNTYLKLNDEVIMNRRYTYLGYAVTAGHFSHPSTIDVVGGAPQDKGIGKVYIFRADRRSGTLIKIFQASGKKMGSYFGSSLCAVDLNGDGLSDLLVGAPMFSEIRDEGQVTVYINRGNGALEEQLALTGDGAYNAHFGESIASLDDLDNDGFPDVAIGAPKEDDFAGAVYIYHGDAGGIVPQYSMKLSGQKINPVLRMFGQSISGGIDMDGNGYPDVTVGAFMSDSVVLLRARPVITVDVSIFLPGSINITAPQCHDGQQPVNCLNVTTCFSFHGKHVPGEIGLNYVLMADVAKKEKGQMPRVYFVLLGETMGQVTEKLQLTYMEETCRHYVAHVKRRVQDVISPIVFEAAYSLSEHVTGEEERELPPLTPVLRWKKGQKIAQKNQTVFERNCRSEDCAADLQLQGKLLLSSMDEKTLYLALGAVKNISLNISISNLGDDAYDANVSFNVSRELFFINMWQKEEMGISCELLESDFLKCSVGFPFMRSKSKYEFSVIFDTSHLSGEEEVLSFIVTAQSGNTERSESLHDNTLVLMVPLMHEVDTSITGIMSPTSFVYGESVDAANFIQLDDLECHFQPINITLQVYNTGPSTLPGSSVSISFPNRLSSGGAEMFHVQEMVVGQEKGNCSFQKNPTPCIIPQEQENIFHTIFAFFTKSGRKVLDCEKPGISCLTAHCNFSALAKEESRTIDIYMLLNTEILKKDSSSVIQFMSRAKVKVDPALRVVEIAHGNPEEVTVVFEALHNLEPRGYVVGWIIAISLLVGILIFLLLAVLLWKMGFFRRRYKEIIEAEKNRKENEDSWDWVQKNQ

Target: T1, alpha-9 integrin (Homo sapiens, UniProt P05556+Q13797)
T1 construct: SW480 cells were transfected with a plasmid containing an expressable coding region for the alpha-9 subunit; host or cells: SW480
Assay: Induction of ligand-occupied epitope (15/7) on α9 transfected SW480 cells (binding saturation assay)
Assay type: cell-based
Conditions: for induction of the ligand-occupied epitope (15/7) in control cells: control mock-transfected cells; for concentration inducing the ligand-occupied epitope (15/7): α9 transfected cells

Row | Compound | induction of the ligand-occupied epitope (15/7) in control cells | concentration inducing the ligand-occupied epitope (15/7)
1 | Cc1ccc(S(=O)(=O)N2CCC[C@H]2C(=O)N[C@@H](Cc2ccc(OC(=O)N3CCN(C)CC3)cc2)C(=O)O)cc1 [Compound 1, N-(toluene-4-sulfonyl)-L-prolyl-L-4(4-methylpiperazin-1-ylcarbonyloxy)phenylalanine] | not in control mock-transfected cells | less than 1 μM
2 | Cc1ccc(S(=O)(=O)N2CCC[C@H]2C(=O)N[C@@H](Cc2ccc(OC(=O)N(C)C)cc2)C(=O)O)cc1 [Compound 2, N-(toluene-4-sulfonyl)-L-prolyl-L-4(N,N-dimethylcarbamyloxy)phenylalanine] (Tos-Pro-Tyr([CO-NMe2])-OH) | not in control mock-transfected cells | less than 1 μM
3 | CN(C)C(=O)Oc1ccc(C[C@H](NC(=O)[C@@H]2CCCN2S(=O)(=O)c2cnn(C)c2)C(=O)O)cc1 [Compound 3, N-(1-methylpyrazole-4-sulfonyl)-L-prolyl-L-4-(N,N-dimethylcarbamyloxy)phenylalanine] | not in control mock-transfected cells | less than 1 μM
4 | Cc1ccc(S(=O)(=O)N2CS(=O)(=O)C(C)(C)[C@H]2C(=O)N[C@@H](Cc2ccc(OC(=O)N(C)C)cc2)C(=O)O)cc1 [Compound 4, N-(toluene-4-sulfonyl)-L-(1,1-dioxo-5,5-dimethyl)thiaprolyl-L-4-(N,N-dimethylcarbamyloxy)phenylalanine] | not in control mock-transfected cells | less than 1 μM
5 | Cc1ccc(S(=O)(=O)N(C)[C@@H](C)C(=O)N[C@@H](Cc2ccc(OC(=O)N(C)C)cc2)C(=O)O)cc1 [Compound 5, N-(toluene-4-sulfonyl)-N-methyl-L-alaninyl-L-4-(N,N-dimethylcarbamyloxy)phenylalanine] (Tos-[NMeA]-Tyr([CO-NMe2])-OH) | not in control mock-transfected cells | less than 1 μM
6 | Cc1ccc(S(=O)(=O)N2CCS(=O)(=O)C[C@H]2C(=O)N[C@@H](Cc2ccc(OC(=O)N(C)C)cc2)C(=O)O)cc1 [Compound 6] | not in control mock-transfected cells | less than 1 μM
7 | Cc1ccc(S(=O)(=O)N(C)CC(=O)NC(Cc2ccc(OC(=O)N(C)C)cc2)C(=O)O)cc1 (stereo not shown) [Compound 8, N-(N-p-toluenesulfonyl)sarcosyl-4-(N,N-dimethylcarbamyloxy)phenylalanine] (Tos-[Sar]-[ξY]([CO-NMe2])-OH) | not in control mock-transfected cells | less than 1 μM
8 | Cc1ccc(S(=O)(=O)N2CSC(C)(C)[C@H]2C(=O)N[C@@H](Cc2ccc(OCCCN(C)C)cc2)C(=O)O)cc1 [Compound 9, N-(toluene-4-sulfonyl)-L-(5,5-dimethyl)thiaprolyl-L-4-[3-(N,N-dimethyl)propoxy]phenylalanine] | not in control mock-transfected cells | less than 1 μM
